From paper PMC3088709, “Phosphorylation of the Yeast γ-Tubulin Tub4 Regulates Microtubule Function” (PLoS ONE, 2011)
Results are given in words; binding and its absence hold for the method and conditions named. Binding seen in cells or lysates may run through a third protein. Some entries that bind do so weakly or less than the wild type. Where a sequence is shown, tags or fusion partners need not be part of it.

T1: Tub4 with six copies of the hemagglutinin epitope HA (S. cerevisiae) (UniProt P53378)
T1 sequence: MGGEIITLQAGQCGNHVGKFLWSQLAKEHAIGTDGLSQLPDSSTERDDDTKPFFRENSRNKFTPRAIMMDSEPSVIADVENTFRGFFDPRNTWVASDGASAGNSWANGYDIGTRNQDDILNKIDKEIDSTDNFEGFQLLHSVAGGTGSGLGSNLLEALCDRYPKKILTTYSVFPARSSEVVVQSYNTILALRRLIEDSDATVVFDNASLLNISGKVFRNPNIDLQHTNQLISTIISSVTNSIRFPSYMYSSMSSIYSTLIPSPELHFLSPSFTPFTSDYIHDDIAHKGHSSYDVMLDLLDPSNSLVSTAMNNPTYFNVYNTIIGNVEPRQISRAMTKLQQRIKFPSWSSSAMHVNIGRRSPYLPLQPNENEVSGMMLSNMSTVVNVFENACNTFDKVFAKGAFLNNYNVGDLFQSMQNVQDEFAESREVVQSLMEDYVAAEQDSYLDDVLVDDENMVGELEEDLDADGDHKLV

B1: Tub4 (yeast gamma-tubulin), wild type, untagged (protein, UniProt P53378 1-473)
chain: MGGEIITLQAGQCGNHVGKFLWSQLAKEHAIGTDGLSQLPDSSTERDDDTKPFFRENSRNKFTPRAIMMDSEPSVIADVENTFRGFFDPRNTWVASDGASAGNSWANGYDIGTRNQDDILNKIDKEIDSTDNFEGFQLLHSVAGGTGSGLGSNLLEALCDRYPKKILTTYSVFPARSSEVVVQSYNTILALRRLIEDSDATVVFDNASLLNISGKVFRNPNIDLQHTNQLISTIISSVTNSIRFPSYMYSSMSSIYSTLIPSPELHFLSPSFTPFTSDYIHDDIAHKGHSSYDVMLDLLDPSNSLVSTAMNNPTYFNVYNTIIGNVEPRQISRAMTKLQQRIKFPSWSSSAMHVNIGRRSPYLPLQPNENEVSGMMLSNMSTVVNVFENACNTFDKVFAKGAFLNNYNVGDLFQSMQNVQDEFAESREVVQSLMEDYVAAEQDSYLDDVLVDDENMVGELEEDLDADGDHKLV
B2: Tub4-S360A (protein, UniProt P53378 1-473)
chain: MGGEIITLQAGQCGNHVGKFLWSQLAKEHAIGTDGLSQLPDSSTERDDDTKPFFRENSRNKFTPRAIMMDSEPSVIADVENTFRGFFDPRNTWVASDGASAGNSWANGYDIGTRNQDDILNKIDKEIDSTDNFEGFQLLHSVAGGTGSGLGSNLLEALCDRYPKKILTTYSVFPARSSEVVVQSYNTILALRRLIEDSDATVVFDNASLLNISGKVFRNPNIDLQHTNQLISTIISSVTNSIRFPSYMYSSMSSIYSTLIPSPELHFLSPSFTPFTSDYIHDDIAHKGHSSYDVMLDLLDPSNSLVSTAMNNPTYFNVYNTIIGNVEPRQISRAMTKLQQRIKFPSWSSSAMHVNIGRRAPYLPLQPNENEVSGMMLSNMSTVVNVFENACNTFDKVFAKGAFLNNYNVGDLFQSMQNVQDEFAESREVVQSLMEDYVAAEQDSYLDDVLVDDENMVGELEEDLDADGDHKLV
B3: Tub4-S360D (protein, UniProt P53378 1-473)
chain: MGGEIITLQAGQCGNHVGKFLWSQLAKEHAIGTDGLSQLPDSSTERDDDTKPFFRENSRNKFTPRAIMMDSEPSVIADVENTFRGFFDPRNTWVASDGASAGNSWANGYDIGTRNQDDILNKIDKEIDSTDNFEGFQLLHSVAGGTGSGLGSNLLEALCDRYPKKILTTYSVFPARSSEVVVQSYNTILALRRLIEDSDATVVFDNASLLNISGKVFRNPNIDLQHTNQLISTIISSVTNSIRFPSYMYSSMSSIYSTLIPSPELHFLSPSFTPFTSDYIHDDIAHKGHSSYDVMLDLLDPSNSLVSTAMNNPTYFNVYNTIIGNVEPRQISRAMTKLQQRIKFPSWSSSAMHVNIGRRDPYLPLQPNENEVSGMMLSNMSTVVNVFENACNTFDKVFAKGAFLNNYNVGDLFQSMQNVQDEFAESREVVQSLMEDYVAAEQDSYLDDVLVDDENMVGELEEDLDADGDHKLV
B4: Tub4-S100E (protein, UniProt P53378 1-473)
chain: MGGEIITLQAGQCGNHVGKFLWSQLAKEHAIGTDGLSQLPDSSTERDDDTKPFFRENSRNKFTPRAIMMDSEPSVIADVENTFRGFFDPRNTWVASDGAEAGNSWANGYDIGTRNQDDILNKIDKEIDSTDNFEGFQLLHSVAGGTGSGLGSNLLEALCDRYPKKILTTYSVFPARSSEVVVQSYNTILALRRLIEDSDATVVFDNASLLNISGKVFRNPNIDLQHTNQLISTIISSVTNSIRFPSYMYSSMSSIYSTLIPSPELHFLSPSFTPFTSDYIHDDIAHKGHSSYDVMLDLLDPSNSLVSTAMNNPTYFNVYNTIIGNVEPRQISRAMTKLQQRIKFPSWSSSAMHVNIGRRSPYLPLQPNENEVSGMMLSNMSTVVNVFENACNTFDKVFAKGAFLNNYNVGDLFQSMQNVQDEFAESREVVQSLMEDYVAAEQDSYLDDVLVDDENMVGELEEDLDADGDHKLV
B5: Tub4-S74E (natural protein, S. cerevisiae, UniProt P53378 1-473, looked up)
chain: MGGEIITLQAGQCGNHVGKFLWSQLAKEHAIGTDGLSQLPDSSTERDDDTKPFFRENSRNKFTPRAIMMDSEPEVIADVENTFRGFFDPRNTWVASDGASAGNSWANGYDIGTRNQDDILNKIDKEIDSTDNFEGFQLLHSVAGGTGSGLGSNLLEALCDRYPKKILTTYSVFPARSSEVVVQSYNTILALRRLIEDSDATVVFDNASLLNISGKVFRNPNIDLQHTNQLISTIISSVTNSIRFPSYMYSSMSSIYSTLIPSPELHFLSPSFTPFTSDYIHDDIAHKGHSSYDVMLDLLDPSNSLVSTAMNNPTYFNVYNTIIGNVEPRQISRAMTKLQQRIKFPSWSSSAMHVNIGRRSPYLPLQPNENEVSGMMLSNMSTVVNVFENACNTFDKVFAKGAFLNNYNVGDLFQSMQNVQDEFAESREVVQSLMEDYVAAEQDSYLDDVLVDDENMVGELEEDLDADGDHKLV
notes: Tub4, gamma-tubulin of budding yeast, phospho-mimicking mutant; source: S. cerevisiae, from integrated pRS305-tub4-S74E, in lysate

target: T1, Tub4 with six copies of the hemagglutinin epitope HA (S. cerevisiae); assay: co-IP; anti-HA immunoprecipitation of Tub4-6HA from lysates of SPC97-5FLAG TUB4-6HA cells carrying pRS305 with TUB4 alleles; Protein G Dynabeads, 4°C, 50 mM Tris-HCl pH 7.5, 150 mM NaCl, 0.1% Triton X-100; blots with anti-Tub4 and anti-FLAG

| Binder | binding |
| --- | --- |
| B1 | binds |
| B2 | binds |
| B3 | binds |
| B4 | binds |
| B5 | binds |
